Tests used:
A549 = test: MTT cell viability assay, A549 cells; type: cell-based, human; conditions: read-out: IC50 (μM) A549, cytotoxicity, mean ± SD
How it was run: (§1)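 Cells kept in RPMI 1640 with 10% FBS and penicillin/streptomycin at 37 °C, 5% CO2. Seeded at 5 × 10^3 cells/well overnight, exposed to a concentration series for the stated time. MTT (5 mg/mL) added for 4 h, crystals dissolved in DMSO, absorbance read at 570 nm. Normalized to DMSO vehicle; three independent runs; IC50 by curve fitting.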

A2780 = test: MTT cell viability assay, A2780 cells; type: cell-based, human; conditions: read-out: IC50 (μM) A2780, cytotoxicity, mean ± SD
How it was run: as §1

`N.N.[Cl][Pt][Cl]` [Cisplatin] showed an IC50 (A549) of 9.1 ± 0.6 µM and an IC50 (A2780) of 9.3 ± 0.8 µM.

Source: PMC8099784 (Redox Biology, 2021)
